Laboratory results reported in PubChem BioAssay AID540276 (National Center for Advancing Translational Sciences (NCATS), 2011).
About 5,400 (1.8%) of roughly 300,000 compounds were called active. The shares of active, inactive and inconclusive entries below differ from those in the screen. The call rests on the fitted dose curve; tested in HEK293 cells. Potencies of inconclusive entries are doubtful fits and often do not repeat.

assay: qHTS for inhibitors of binding or entry into cells for Marburg Virus; conditions: Marburg virus pseudotyped entry inhibition, cell reporter; series mostly up to 37.8 µM
Potency means the concentration at half of the fitted maximal effect.

SMILES	Potency
COc1ccc(N(C(=O)c2ccccc2)S(=O)(=O)c2cccs2)cc1	inconclusive: 35.5 µM [inhibitor, single point]
Cc1ccc(C)c(C(=O)c2c(N)c(-c3nc(-c4ccc5c(c4)OCO5)cs3)c3ccccn23)c1	inactive
CCOC(=O)c1cc(NC(=O)Nc2ccccc2OC)c(C)nc1C	inactive
Cc1ccc(C2CN(C)C3(C(=O)Nc4ccccc43)C23COc2ccccc2C3=O)cc1 (stereo not given)	inconclusive: 31.6 µM [inhibitor, single point]
O=C(N/N=C/c1ccc([N+](=O)[O-])o1)c1cn(-c2ccccc2)nc1-c1ccccc1	inconclusive: 35.5 µM [inhibitor, single point]
CN1CCN(c2ccccc2NC(=O)c2ccc(-c3ccccc3[N+](=O)[O-])o2)CC1	inconclusive: 25.1 µM [inhibitor, single point]
COc1ccc(N(Cc2cccs2)C(=O)c2ccc(OCC(C)C)cc2)cc1	inactive
Cc1cccc(N(CC(=O)Nc2c(C)n(C)n(-c3ccccc3)c2=O)S(C)(=O)=O)c1C	inconclusive: 8.2 µM [activator, partial curve, poor fit]
CCN(CC)S(=O)(=O)c1ccc(S(=O)(=O)N2CCC(C(=O)NC3CCN(Cc4ccccc4)CC3)CC2)cc1	inconclusive: 35.5 µM [inhibitor, single point]
COc1ccc(COC(=O)N/N=C2\C[C@@H](O)[C@@H](O)[C@@H]3[C@@H]4C(=O)N(c5ccc(F)cc5F)C(=O)[C@@H]4CC[C@@H]23)cc1	inconclusive: 5.31 µM [activator, single point]
Cc1cc(C)cc(Nc2nc(-c3ccc(S(=O)(=O)N4CCCC4)cc3)cs2)c1	inconclusive: 29.1 µM [inhibitor, single point]
COc1ccccc1Nc1nnc(SCC(=O)c2cc(C)n(CC3CCCO3)c2C)s1 (stereo not given)	inactive
COCC1CCCN(Cc2cn(-c3ccccc3)nc2-c2ccc3c(c2)OCO3)C1 (stereo not given)	inactive
CCOc1ccc(CNc2nc3nc(C)c(Cc4ccccc4)c(=O)n3[nH]2)cc1	inconclusive: 6.31 µM [activator, single point]
CC1(C)OC2CC3C4CC(F)C5=CC(=O)C=CC5(C)C4(F)C(O)CC3(C)C2(C(=O)CO)O1 (stereo not given)	inconclusive: 2.82 µM [activator, partial curve, poor fit]
CC(NC(=S)NC(=O)c1cccs1)c1ccccc1 (stereo not given)	inconclusive: 0.562 µM [inhibitor, full curve, poor fit]
COC(=O)C1CCN(S(=O)(=O)c2ccc(NC(C)=O)cc2)CC1	inconclusive: 4.11 µM [inhibitor, partial curve, poor fit]
CC(C)(C)NC(=S)NNC(=O)[C@H]1C[C@@H]1c1ccccc1	inactive
COc1ccc(CN(C)C(=O)COC(=O)c2cnc(Cl)c(Cl)c2)cc1	inactive
Cc1cc(N2C(=O)CC(N3CCN(c4ccc(C(=O)c5cccs5)cc4)CC3)C2=O)no1 (stereo not given)	inactive
Fc1ccc(N/N=C2/CC(c3ccccc3)Oc3ccccc32)c(F)c1 (stereo not given)	inactive
O=C(Nc1ccc(S(=O)(=O)N2CCOCC2)cc1)c1ccc2c(c1)OCO2	inactive

SMILES	Potency
CC(=O)c1ccc(NC(=S)NCCc2ccccn2)cc1	inconclusive: 0.1 µM [activator, full curve, poor fit]
COc1cc(C(=O)OCC(=O)Nc2c(C)n(C)n(-c3ccccc3)c2=O)c([N+](=O)[O-])cc1OC	inconclusive: 1.12 µM [activator, full curve, poor fit]
CCOC(=O)COc1ccccc1C1C(C(=O)OC)=C(C)NC2=C1C(=O)c1ccccc12 (stereo not given)	inconclusive: 8.91 µM [inhibitor, partial curve, poor fit]
CSc1nc(-c2ccco2)cc(C(F)(F)F)c1C#N	inconclusive: 3.16 µM [inhibitor, partial curve]
CC(=O)N1CCOc2ccc(S(=O)(=O)N3CCC(C(=O)NCc4ccc(C)cc4)CC3)cc21	inconclusive: 28.2 µM [activator, single point]
Nc1cc2c(cc1Cl)-c1ccccc1C2=NO	inconclusive: 35.5 µM [activator, single point]
Cc1nn2c(=O)cc(COc3ccc(/C=C(\C#N)C(=O)Nc4ccc(F)cc4)cc3)nc2s1	inactive
O=C(CNS(=O)(=O)/C=C/c1ccccc1)OCC(=O)N1CCC(Cc2ccccc2)CC1	inconclusive: 1.12 µM [inhibitor, single point]
CCN1C(=O)Cc2cc(S(=O)(=O)NCCc3ccccc3)ccc21	inconclusive: 7.94 µM [activator, single point]
O=C(Nc1ccccc1)Nc1ccc(F)c([N+](=O)[O-])c1	inconclusive: 10 µM [inhibitor, partial curve, poor fit]
N#Cc1c(N)n(-c2cccc(Cl)c2)c2nc3ccccc3nc12	inactive
COC(=O)c1cccc(N(C(=O)c2cnccn2)C(C(=O)NCc2ccccc2)c2ccco2)c1 (stereo not given)	inconclusive: 16.4 µM [inhibitor, partial curve]
CS(=O)(=O)c1ccc(C(=O)OCc2nnc(-c3ccc(Cl)cc3)o2)cc1[N+](=O)[O-]	inconclusive: 35.5 µM [inhibitor, single point]
C=CCn1c(C)cc(C(=O)COC(=O)c2n[nH]c(=O)c3ccccc23)c1C	inconclusive: 3.98 µM [inhibitor, full curve, poor fit]
CC(C)(C)OC(=O)NNC(=O)c1cccs1	inconclusive: 11.2 µM [activator, single point]
O=c1oc2ccc3ccccc3c2cc1-c1nnc(-c2cccs2)o1	inactive
COCC(=O)Nc1ccc(S(=O)(=O)N2CCCC2)cc1	inconclusive: 0.501 µM [activator, full curve]
CC1CCN(C(=O)CN(c2ccc3c(c2)OCCO3)S(=O)(=O)c2ccccc2)CC1	inconclusive: 3.16 µM [activator, single point]
Cc1c(C)n(Cc2ccccc2)c2ccc(C(=O)OCCCN(C)C)cc12	active: 10 µM
CCOC(=O)c1cccc(NC(=O)c2cc3c(-c4cccc(OC)c4)nn(C)c3s2)c1	inconclusive: 35.5 µM [inhibitor, single point]
Cc1cc(/C=C2/SC(=S)N(c3cccc(Cl)c3)C2=O)c(C)n1-c1cccnc1	inconclusive: 10 µM [inhibitor, partial curve, poor fit]
COc1ccc(CCNC(=O)CCCCCNc2nc(=S)[nH]c3ccccc23)cc1OC	inconclusive: 7.08 µM [inhibitor, partial curve, poor fit]

2 entries picked at random from the list so far:
SMILES	Potency
CCN(CC)S(=O)(=O)c1ccc(S(=O)(=O)N2CCC(C(=O)NC3CCN(Cc4ccccc4)CC3)CC2)cc1	inconclusive: 35.5 µM [inhibitor, single point]
COc1ccc(N(Cc2cccs2)C(=O)c2ccc(OCC(C)C)cc2)cc1	inactive

Next compounds follow:

SMILES	Potency
O=C(Nc1ccc(N2CCOCC2)cc1N1CCOCC1)c1cccs1	inactive
CC(=O)c1cccc(NC(=O)c2ccc(N(C)S(C)(=O)=O)cc2)c1	inconclusive: 35.5 µM [inhibitor, partial curve, poor fit]
Cc1ccc(N(C(=O)c2snc(C(N)=O)c2N)C(C(=O)NCC2CCCO2)c2ccc(C)o2)c(C)c1 (stereo not given)	inactive
COc1ccc(-n2nnnc2-c2cn(C)nc2C(F)(F)F)cc1	inconclusive: 15.8 µM [inhibitor, single point]
Nc1ncnc2[nH]c(=S)[nH]c12	inconclusive: 0.501 µM [inhibitor, full curve, poor fit]
Cc1c(Cl)cccc1NC(=S)NCCC(c1ccccc1)c1ccccc1	inconclusive: 17.8 µM [inhibitor, partial curve, poor fit]
O=C(Nc1ccc2c(c1)OCO2)C1CCCN1C(=O)Nc1cccc(F)c1 (stereo not given)	inactive
O=C(N/N=C/c1ccc(OCCCF)cc1)c1ccc(C(F)(F)F)cc1	inconclusive: 3.98 µM [inhibitor, full curve]
CC(C)(C)n1nnnc1C(c1cccs1)N1CCCc2ccccc21 (stereo not given)	inconclusive: 22.4 µM [inhibitor, single point]
CN(C(=O)CSc1nnc(-c2ccccc2F)o1)C1CCCCC1	inactive
CCOC(=O)C(O)(c1ccc(N(C)C(=O)c2ccc(Cl)c(Cl)c2)cc1)C(F)(F)F (stereo not given)	inconclusive: 29.1 µM [inhibitor, single point]
CCOc1ccc(Br)cc1S(=O)(=O)Nc1ccc(Cl)c(S(=O)(=O)N(CC)c2ccccc2)c1	inconclusive: 11.2 µM [inhibitor, partial curve, poor fit]
O=C(O)c1cc(CN2CCOCC2)oc1-c1ccccc1	inconclusive: 0.058 µM [inhibitor, full curve, poor fit]
CCCN1C(=O)C2(c3ccccc31)c1c(oc3ccc(F)cc3c1=O)C(=O)N2CCCOC(C)C (stereo not given)	inactive
Cc1ccc(C(=O)C2C(c3ccc(-c4ccccc4[N+](=O)[O-])o3)NC(=O)NC2(O)C(F)(F)F)cc1 (stereo not given)	inconclusive: 10 µM [inhibitor, partial curve]
CC(C)CCOc1cccc(OCC(=O)O)c1	inconclusive: 6.31 µM [inhibitor, single point]
Cc1ccc(OC(=O)N2CCOCC2)cc1	inconclusive: 25.9 µM [activator, single point]
COC(=O)[C@H](CCSC)NC(=O)N1CCN(c2cccc(C(F)(F)F)c2)CC1	inactive
Cc1cnc(NC(=O)c2cc3ccccc3o2)s1	active: 12.6 µM
Cc1ccnc(NC(=O)c2ccc(OCC3CCCO3)cc2)c1 (stereo not given)	active: 3.55 µM
COc1ccc(NC(=O)CSc2nc3sc(C)c(C)c3c(=O)n2Cc2ccco2)cc1	inconclusive: 16.4 µM [inhibitor, partial curve, poor fit]

Looked up above:
In Potency, `CCOC(=O)COc1ccccc1C1C(C(=O)OC)=C(C)NC2=C1C(=O)c1ccccc12` (stereo not given) shows inconclusive: 8.91 µM [inhibitor, partial curve, poor fit]
In Potency, `O=C(O)c1cc(CN2CCOCC2)oc1-c1ccccc1` shows inconclusive: 0.058 µM [inhibitor, full curve, poor fit]
